Assay results from article PMC8884482.

Each sequence was assayed against T1, CaSWC4-6xHis (Capsicum annuum) (UniProt A0A2G3AKV1) (assay: EMSA). Conditions: EMSA: 5x binding buffer listed as 1 M Tris-HCl pH 7.5, 5 M NaCl, 1 M KCl, 1 M MgCl2, 0.5 M EDTA pH 8.0, 10 mg/ml BSA (apparently stock concentrations); recombinant protein; protein details: 6xHis (C-terminal as named); label: 5'-Cy5 on strand 1.
T1 sequence (looked up, limits assumed): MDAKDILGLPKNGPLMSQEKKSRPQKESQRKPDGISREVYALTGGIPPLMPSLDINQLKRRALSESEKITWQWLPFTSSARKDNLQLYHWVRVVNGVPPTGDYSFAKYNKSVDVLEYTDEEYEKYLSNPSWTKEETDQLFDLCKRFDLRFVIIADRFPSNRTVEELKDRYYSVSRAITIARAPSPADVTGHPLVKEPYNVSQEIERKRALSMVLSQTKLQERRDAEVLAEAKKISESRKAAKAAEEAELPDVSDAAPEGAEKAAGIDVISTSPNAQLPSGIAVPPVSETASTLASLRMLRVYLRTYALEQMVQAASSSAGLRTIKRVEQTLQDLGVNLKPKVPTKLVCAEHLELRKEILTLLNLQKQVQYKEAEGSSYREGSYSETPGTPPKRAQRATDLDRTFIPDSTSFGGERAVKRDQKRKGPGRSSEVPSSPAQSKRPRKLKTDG

Binding result, binds:
ATATATACTAAAGGTATAATATAAATCTTTTTATTTTTTT (double strand) [PNPR1-AT-EMSA (CaNPR1 promoter AT-rich)]
TATAAACTAAATAAAAGAGCCCAACCCAAAAAACTAGTTT (double strand) [PHSP24-AT-EMSA (CaHSP24 promoter AT-rich)]
TTTCCCAAAAATCGTAATGGAGTCCGACCATAACGAATT (double strand) [PDEF1-AT-EMSA (CaDEF1 promoter AT-rich)]

The exact form of at least one protein or probe is not confirmed. At least one verdict was read from the data and is not stated in words by the source. Where a protein sequence is shown, tags need not be part of it.
